Patent US20050186264A1, “Targeting drug/gene carriers to irradiated tissue” (priority 2000, published 2005)
At least one compound was matched to its structure with a doubt left.

Tests used:
B16-F10 melanoma tumors = assay: tumor growth of B16-F10 melanoma tumors in hind leg of C57BL mice; format: in vivo
[1] = system: spontaneous mammary tumors; assay: tumor growth of spontaneous mammary tumors; format: in vivo; settings: alone, Sys 128 mg/kg, IL 12.8 mg/kg

COc1ccc(C[C@@H](O)c2cc(OC)c(OC)c(OC)c2)cc1O [Sys, combretastatin]
tumor growth delay without radiation (B16-F10 melanoma tumors; larger tumors 1.2-1.5 mm^3, alone, Sys 128 mg/kg, Lipo 12.8 mg/kg): did not cause a significant growth delay
tumor growth curve vs untreated tumors (B16-F10 melanoma tumors; tumors 0.8-1.1 mm^3, no radiation, n=4 per group): no significant difference
tumor growth delay without radiation [1]: did not cause a significant growth delay
